Measurements reported in paper PMC4695001.
No constants are given. Whether binding was seen depends on the method and setting. In cells and extracts the contact can be indirect. Some results given as binding are weak or reduced against the parent protein; the word gives no strength.

Protein sequences, listed by entry. Tags and fused reporters are not part of them. Lines headed by an entry give the natural chain unless they say otherwise; changes in a name come on top. Chains listed by the source or under a name are the forms on record and can include a tag or linker.
androgen receptor splice variant AR-V7 (P10275-3, form named): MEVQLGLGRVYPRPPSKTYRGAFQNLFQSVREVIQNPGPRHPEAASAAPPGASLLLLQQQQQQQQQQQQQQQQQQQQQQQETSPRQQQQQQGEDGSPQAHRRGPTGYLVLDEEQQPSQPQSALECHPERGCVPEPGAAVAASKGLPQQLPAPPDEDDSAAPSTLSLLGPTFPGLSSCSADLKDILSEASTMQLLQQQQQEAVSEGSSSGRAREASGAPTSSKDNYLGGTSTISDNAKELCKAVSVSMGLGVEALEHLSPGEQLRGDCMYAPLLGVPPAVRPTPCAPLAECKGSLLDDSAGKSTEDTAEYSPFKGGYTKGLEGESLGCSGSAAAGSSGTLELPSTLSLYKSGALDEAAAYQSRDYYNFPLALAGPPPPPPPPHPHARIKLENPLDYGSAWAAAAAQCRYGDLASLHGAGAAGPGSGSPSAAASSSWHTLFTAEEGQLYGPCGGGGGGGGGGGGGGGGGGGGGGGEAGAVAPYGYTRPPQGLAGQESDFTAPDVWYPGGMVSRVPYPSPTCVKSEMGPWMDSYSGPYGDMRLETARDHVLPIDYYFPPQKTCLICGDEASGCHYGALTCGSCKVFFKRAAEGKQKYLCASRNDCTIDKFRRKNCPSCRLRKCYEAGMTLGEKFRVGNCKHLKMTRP
UniProt Q9UNE7: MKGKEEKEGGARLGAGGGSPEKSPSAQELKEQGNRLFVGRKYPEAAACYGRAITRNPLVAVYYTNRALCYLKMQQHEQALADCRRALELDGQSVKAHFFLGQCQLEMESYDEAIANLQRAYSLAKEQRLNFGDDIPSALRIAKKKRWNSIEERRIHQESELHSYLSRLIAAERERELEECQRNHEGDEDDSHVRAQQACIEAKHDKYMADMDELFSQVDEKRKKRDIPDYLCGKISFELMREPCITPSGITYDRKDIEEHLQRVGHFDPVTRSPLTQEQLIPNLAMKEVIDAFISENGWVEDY

Assays:
[1] = target: androgen receptor splice variant AR-V7 (human (endogenous in CWR22Rv1)) (UniProt P10275); assay: co-IP; endogenous proteins; 1 mg total RIPA lysate of LNCaP or CWR22Rv1 cells treated with DMSO or gal (10 uM, 11 or 14 h); pre-cleared with protein A/G sepharose; 1 ug polyclonal antibody per 500 ug protein (AR-V7: mouse monoclonal), 4°C 12 h; washed 3X with lysis buffer; immunoblot
[2] = target: CHIP (C-terminus of Hsp70-interacting protein) (human (endogenous in CWR22Rv1)) (UniProt Q9UNE7); assay: as above

| binding [1] | binding [2] | Substance |
| --- | --- | --- |
| binds | – | CHIP (C-terminus of Hsp70-interacting protein) (from UniProt Q9UNE7 1-303) (enzyme) |
| – | binds | androgen receptor splice variant AR-V7 (from UniProt P10275-3 1-644) |
